Measurements taken from US20240390369A1, “METHODS FOR DETERMINING RESPONSIVENESS TO TYK2 INHIBITORS” (Bristol-Myers Squibb Company, priority 2021, published 2024).
The source gives many values for each of these; only a part stands here.

Tested on: patients with psoriatic arthritis
Test: Phase 2 trial in psoriatic arthritis: ACR20 response at week 16
Type: in vivo, human
Conditions: 12 mg QD
Description: In a double-blind Phase 2 trial, 203 patients with psoriatic arthritis were randomized into three groups: deucravacitinib 6 mg once daily (N=70), deucravacitinib 12 mg once daily (N=67), or placebo (N=66). All subjects had active psoriatic arthritis according to the Classification Criteria for Psoriatic Arthritis (CASPAR); for active disease, these criteria required ≥3 tender joint count, ≥3 swollen joint count, and a C-reactive protein level above 3 mg/L. Other inclusion criteria included the following: presence of at least one plaque psoriasis lesion, and prior treatment failure with a non-biologic disease modifying anti-rheumatic drug, a non-steroidal anti-inflammatory drug, or a steroid. With respect to treatment history, approximately 70% of subjects had not received prior treatment with a biologic and were biologic naïve, while up to 30% of subjects had failed or had been intolerant to one TNF-inhibitor (TNF=Tumor necrosis factor, also known as TNFα). Randomization was stratified by prior TNF-inhibitor use (experienced/naïve) and body weight (<90 kg and ≥90 kg).
Clinical measures included the Psoriasis […] (PASI) score for skin psoriasis, American College of Rheumatology 20 (ACR20) response, Psoriatic Arthritis Disease Activity Score (PASDAS), Health Assessment Questionnaire-Disability Index (HAQ-DI), and Disease Activity Score 28 CRP (DAS28). To evaluate the predictive value of different protein measurements for the clinical response to deucravacitinib, baseline protein concentrations for responders and non-responders, as defined by ACR20 or PASI75 at week 16, were compared for each arm (placebo, 6 mg deucravacitinib once-daily, and 12 mg deucravacitinib once-daily).
Boxplots for baseline protein level by response were generated with a horizontal line indicating the median protein level at baseline. For each treatment arm, a two-sample t-test was performed to test whether mean baseline serum protein level was different in responders versus non-responders. […]

[2H]C([2H])([2H])NC(=O)c1nnc(NC(=O)C2CC2)cc1Nc1cccc(-c2ncn(C)n2)c1OC [deucravacitinib, 6-(cyclopropanecarboxamido)-4-((2-methoxy-3-(1-methyl-1H-1,2,4-triazol-3-yl)phenyl)amino)-N-(methyl-d3)pyridazine-3-carboxamide]
Number of subjects (ACR20 non-responder at week 16, above median baseline IL-17A level): 10 | Number of subjects (ACR20 responder at week 16, above median baseline IL-17A level): 21 | Number of subjects (ACR20 responder at week 16, below median baseline IL-17A level): 20
